This assay addresses IL-17RA-Fc fusion protein (UniProt Q96F46). Description: FRET or BRET; 1 nM biotinylated IL-17A labeled with 0.67 nM Europium-Streptavidin, 6 nM IL-17RA-Fc labeled with 1 nM Alexa Fluor 647 antibody; 10 mM HEPES pH 7.4, 150 mM NaCl, 0.02% BSA, 0.01% Tween 20; room temperature, 3 h; 665/615 ratio; both purified.

Chains of the proteins cited; added tags and fusions are not shown. Residues count along the entry.
UniProt Q96F46, residues 33-320: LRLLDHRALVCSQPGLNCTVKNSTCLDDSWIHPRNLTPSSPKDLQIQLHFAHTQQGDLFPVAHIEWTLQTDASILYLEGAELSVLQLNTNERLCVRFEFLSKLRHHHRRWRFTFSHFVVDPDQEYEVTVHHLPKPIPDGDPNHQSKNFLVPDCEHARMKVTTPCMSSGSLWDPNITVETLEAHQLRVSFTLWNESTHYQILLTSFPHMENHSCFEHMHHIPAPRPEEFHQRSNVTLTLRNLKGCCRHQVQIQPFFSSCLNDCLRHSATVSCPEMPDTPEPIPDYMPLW
UniProt Q16552, residues 24-155: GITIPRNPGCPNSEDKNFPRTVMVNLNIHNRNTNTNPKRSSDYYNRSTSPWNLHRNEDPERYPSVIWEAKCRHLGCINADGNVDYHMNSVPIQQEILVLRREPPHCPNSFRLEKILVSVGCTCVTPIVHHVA

Results are given in words; binding and its absence hold for the method and conditions named. Some binding calls cover weakened binding; strength is not graded here.

As to “Biotinylated Bap-tagged human IL-17A (from UniProt Q16552 24-155) (ligand)”, the binding entry is reported as “binds”.

The values above are taken from article PMC4985813, “Binding site elucidation and structure guided design of macrocyclic IL-17A antagonists” (Scientific Reports, 2016).
